Test results as given in PMC11164680.

Sequences of proteins named here, by UniProt entry; tags and fusion partners are left off. A change or cut given only in a name is not applied to a line headed by its entry. A line that says so, or that is headed by a name, gives the form on record, which may keep a tag or linker.
HA-tagged P4HA2, wild type (O15460, form named): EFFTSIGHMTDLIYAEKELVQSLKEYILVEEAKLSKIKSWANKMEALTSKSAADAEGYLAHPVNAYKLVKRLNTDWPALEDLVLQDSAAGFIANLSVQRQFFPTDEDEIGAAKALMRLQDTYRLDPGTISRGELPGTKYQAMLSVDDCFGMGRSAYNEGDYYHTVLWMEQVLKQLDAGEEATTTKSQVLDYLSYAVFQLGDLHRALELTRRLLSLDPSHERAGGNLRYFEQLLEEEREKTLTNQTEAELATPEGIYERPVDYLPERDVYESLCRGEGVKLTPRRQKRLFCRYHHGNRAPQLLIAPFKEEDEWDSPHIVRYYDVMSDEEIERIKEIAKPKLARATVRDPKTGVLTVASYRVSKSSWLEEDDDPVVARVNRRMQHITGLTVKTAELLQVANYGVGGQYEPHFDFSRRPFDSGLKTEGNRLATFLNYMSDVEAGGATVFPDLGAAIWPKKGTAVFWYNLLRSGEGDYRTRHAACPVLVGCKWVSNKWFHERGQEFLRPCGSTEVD
UniProt O14965: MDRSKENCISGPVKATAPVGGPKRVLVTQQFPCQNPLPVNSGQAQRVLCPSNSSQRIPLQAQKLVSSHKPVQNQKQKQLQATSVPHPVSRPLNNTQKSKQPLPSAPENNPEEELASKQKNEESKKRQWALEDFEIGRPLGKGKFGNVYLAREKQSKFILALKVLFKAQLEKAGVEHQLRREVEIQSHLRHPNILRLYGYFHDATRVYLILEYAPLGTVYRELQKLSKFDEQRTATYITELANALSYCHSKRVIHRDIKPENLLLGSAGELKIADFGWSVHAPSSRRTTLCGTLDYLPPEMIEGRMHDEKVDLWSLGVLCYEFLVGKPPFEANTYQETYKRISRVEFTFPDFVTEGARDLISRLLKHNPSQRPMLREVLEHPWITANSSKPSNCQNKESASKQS
UniProt Q14004: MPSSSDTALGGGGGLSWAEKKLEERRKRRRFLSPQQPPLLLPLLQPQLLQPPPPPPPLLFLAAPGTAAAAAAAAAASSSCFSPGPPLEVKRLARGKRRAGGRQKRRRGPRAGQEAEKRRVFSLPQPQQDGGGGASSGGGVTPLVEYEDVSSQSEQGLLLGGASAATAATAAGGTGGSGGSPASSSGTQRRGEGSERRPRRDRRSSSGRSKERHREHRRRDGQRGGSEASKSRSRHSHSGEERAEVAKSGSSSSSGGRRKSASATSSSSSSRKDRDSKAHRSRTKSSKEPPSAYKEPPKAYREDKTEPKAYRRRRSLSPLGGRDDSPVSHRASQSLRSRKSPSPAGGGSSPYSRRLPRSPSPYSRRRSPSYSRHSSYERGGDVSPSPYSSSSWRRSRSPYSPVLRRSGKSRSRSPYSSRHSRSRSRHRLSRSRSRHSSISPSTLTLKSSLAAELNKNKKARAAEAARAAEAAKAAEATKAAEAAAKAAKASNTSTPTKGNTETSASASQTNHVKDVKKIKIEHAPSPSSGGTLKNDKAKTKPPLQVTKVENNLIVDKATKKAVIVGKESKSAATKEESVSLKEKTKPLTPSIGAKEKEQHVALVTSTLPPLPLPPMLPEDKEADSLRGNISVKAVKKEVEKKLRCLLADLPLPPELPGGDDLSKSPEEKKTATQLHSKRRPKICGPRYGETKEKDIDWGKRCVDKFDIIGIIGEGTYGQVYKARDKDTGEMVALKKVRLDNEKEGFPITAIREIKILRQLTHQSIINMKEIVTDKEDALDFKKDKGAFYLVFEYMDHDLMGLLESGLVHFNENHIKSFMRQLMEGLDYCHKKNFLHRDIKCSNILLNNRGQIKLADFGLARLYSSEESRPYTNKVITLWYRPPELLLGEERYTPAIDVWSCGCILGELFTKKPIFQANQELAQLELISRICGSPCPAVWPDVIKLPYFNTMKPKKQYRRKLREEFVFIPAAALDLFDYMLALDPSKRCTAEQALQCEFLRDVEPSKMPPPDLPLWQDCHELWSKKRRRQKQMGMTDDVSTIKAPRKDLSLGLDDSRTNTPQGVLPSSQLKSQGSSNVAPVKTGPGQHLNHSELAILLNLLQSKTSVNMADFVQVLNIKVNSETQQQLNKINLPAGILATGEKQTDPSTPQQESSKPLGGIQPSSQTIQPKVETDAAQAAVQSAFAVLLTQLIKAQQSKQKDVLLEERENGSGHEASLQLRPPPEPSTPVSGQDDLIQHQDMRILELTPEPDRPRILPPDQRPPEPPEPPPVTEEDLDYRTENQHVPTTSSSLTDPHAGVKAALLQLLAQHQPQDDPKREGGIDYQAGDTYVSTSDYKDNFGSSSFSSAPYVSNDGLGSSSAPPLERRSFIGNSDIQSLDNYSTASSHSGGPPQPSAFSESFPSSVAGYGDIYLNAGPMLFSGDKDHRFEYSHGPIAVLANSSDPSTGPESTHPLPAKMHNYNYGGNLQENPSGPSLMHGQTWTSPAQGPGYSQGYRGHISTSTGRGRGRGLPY

Biological target: HA-tagged P4HA2, wild type (human) (UniProt O15460)
Assay: affinity purification with mass spectrometry; anti-Flag or anti-HA IP from whole-cell lysates of 293T cells transfected with Flag-mTOR or HA-P4HA2, normoxia; IP buffer 50 mM Tris-HCl pH 7.5, 150 mM NaCl, 0.5% NP-40, 10% glycerol; eluted with 8 M urea, trypsin, Orbitrap Fusion Lumos

Substance | binding
Aurora kinase A, endogenous in 293T cells (from UniProt O14965 1-403) (enzyme) | binds
Cyclin-dependent kinase 13, endogenous in 293T cells (from UniProt Q14004 1-1512) (enzyme) | binds

No constants are given. Whether binding was seen depends on the method and setting. Binding seen in cells or lysates may run through a third protein. These calls come from enrichment with a bait or labelling near it, and not all partners need be listed.
